# According to publication PMC8718691:
# By UniProt entry, the sequences of proteins in these tests, tags left out. Residues count along the entry.
# UniProt P49841: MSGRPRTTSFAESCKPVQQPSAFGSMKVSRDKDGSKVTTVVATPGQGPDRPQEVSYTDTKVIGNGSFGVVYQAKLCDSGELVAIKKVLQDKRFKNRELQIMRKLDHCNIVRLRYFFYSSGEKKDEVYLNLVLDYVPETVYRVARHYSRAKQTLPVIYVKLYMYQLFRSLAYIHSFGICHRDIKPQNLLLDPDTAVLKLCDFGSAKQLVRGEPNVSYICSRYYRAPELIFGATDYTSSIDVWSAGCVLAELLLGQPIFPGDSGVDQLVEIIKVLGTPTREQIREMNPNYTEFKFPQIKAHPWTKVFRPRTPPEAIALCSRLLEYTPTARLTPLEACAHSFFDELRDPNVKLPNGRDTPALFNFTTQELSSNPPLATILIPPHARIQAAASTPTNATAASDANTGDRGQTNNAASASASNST
# UniProt P46531, residues 19-2555: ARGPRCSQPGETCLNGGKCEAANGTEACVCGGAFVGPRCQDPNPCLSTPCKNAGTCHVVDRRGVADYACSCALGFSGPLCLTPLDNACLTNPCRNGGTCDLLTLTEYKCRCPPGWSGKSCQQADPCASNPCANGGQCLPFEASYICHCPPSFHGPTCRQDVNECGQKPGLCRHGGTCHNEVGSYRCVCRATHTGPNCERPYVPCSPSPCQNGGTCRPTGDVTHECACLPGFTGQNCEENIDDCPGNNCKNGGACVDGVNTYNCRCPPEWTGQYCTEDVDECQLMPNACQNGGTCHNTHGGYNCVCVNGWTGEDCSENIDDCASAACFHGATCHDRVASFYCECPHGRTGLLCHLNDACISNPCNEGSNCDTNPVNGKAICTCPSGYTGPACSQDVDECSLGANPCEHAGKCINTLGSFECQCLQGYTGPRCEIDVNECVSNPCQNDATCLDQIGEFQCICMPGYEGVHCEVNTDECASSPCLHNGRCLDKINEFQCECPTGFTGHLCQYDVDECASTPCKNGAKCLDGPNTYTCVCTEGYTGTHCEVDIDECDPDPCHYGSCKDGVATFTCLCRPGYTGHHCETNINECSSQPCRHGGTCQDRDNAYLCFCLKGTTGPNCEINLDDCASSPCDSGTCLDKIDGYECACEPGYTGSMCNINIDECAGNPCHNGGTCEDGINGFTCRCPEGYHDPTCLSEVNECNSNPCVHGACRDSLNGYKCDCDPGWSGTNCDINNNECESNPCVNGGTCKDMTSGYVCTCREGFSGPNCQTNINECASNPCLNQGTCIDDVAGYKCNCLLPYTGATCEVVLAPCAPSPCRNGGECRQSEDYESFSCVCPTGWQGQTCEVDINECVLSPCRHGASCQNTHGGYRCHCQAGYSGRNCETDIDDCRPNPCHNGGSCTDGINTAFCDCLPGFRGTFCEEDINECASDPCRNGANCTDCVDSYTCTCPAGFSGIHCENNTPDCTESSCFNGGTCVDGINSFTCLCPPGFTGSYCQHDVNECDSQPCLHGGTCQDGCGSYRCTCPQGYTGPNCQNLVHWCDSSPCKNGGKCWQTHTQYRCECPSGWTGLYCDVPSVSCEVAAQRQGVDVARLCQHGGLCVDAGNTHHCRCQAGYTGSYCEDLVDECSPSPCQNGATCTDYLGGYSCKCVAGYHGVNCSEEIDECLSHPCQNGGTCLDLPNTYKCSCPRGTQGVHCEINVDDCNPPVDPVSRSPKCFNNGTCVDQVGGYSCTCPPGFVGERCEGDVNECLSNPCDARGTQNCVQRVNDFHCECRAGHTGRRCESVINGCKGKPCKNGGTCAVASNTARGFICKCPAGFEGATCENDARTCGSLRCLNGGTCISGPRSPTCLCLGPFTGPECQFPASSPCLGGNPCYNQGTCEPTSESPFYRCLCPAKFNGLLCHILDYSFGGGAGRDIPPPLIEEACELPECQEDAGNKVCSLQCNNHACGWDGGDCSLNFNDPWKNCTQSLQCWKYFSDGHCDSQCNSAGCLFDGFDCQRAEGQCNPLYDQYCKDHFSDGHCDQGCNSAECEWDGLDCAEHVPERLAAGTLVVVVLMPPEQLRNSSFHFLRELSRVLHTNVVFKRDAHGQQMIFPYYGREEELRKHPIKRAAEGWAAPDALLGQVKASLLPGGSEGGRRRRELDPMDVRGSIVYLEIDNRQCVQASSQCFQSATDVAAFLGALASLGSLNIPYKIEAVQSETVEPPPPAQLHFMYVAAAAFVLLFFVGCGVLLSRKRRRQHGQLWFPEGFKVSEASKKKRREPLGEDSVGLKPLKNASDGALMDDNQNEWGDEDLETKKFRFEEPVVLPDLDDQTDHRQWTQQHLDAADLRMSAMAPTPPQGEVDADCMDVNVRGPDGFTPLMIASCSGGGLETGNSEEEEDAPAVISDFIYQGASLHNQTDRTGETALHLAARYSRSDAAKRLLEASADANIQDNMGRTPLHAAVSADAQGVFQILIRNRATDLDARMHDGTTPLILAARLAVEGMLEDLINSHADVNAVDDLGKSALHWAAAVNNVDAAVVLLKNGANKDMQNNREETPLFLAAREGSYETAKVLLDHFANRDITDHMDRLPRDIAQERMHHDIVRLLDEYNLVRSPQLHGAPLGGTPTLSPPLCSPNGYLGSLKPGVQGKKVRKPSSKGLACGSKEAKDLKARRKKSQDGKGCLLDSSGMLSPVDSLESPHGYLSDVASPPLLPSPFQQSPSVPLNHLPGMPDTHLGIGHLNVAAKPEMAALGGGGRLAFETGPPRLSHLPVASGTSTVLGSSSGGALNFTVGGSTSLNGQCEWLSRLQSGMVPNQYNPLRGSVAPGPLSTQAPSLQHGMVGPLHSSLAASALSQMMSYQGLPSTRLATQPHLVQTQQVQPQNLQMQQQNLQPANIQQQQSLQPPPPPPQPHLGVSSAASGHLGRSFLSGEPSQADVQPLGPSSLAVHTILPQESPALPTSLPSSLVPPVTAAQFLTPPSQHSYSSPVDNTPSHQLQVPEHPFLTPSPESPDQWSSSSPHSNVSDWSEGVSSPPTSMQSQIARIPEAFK
# UniProt P23443: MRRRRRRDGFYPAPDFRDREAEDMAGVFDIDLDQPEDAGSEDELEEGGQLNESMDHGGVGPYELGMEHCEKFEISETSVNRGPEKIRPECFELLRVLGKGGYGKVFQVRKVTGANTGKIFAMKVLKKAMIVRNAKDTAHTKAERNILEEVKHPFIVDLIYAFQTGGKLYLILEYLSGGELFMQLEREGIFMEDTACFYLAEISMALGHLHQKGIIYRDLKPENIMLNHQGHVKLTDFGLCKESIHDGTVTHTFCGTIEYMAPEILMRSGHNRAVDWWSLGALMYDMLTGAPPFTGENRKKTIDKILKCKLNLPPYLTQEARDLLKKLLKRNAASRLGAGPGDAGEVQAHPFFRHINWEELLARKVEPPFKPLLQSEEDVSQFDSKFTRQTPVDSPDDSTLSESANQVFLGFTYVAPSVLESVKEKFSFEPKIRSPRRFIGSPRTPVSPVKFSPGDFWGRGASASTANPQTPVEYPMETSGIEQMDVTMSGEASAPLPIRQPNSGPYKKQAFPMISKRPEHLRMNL
# Target: Glycogen synthase kinase 3β (human (endogenous in HuT78 and primary PBL T-cells)) (UniProt P49841)
# Assay: affinity purification with mass spectrometry; anti-GSK3β immunoprecipitates from lysates (2 mg protein each) of resting or LFA-1/ICAM-1-stimulated migrating HuT78 T-cells; native gel, in-gel trypsin digest, LC-ESI-MS/MS, Mascot search against UniProt Human
row,binding,Molecule
1,binds,Notch1 (from UniProt P46531 19-2555) (receptor)
2,binds,ribosomal protein S6 kinase beta-1 (from UniProt P23443 1-525) (enzyme)
3,binds,"caspase recruitment domain-containing protein 11 (protein, UniProt Q9BXL7 1-1154) MPGGGPEMDDYMETLKDEEDALWENVECNRHMLSRYINPAKLTPYLRQCKVIDEQDEDEVLNAPMLPSKINRAGRLLDILHTKGQRGYVVFLESLEFYYPELYKLVTGKEPTRRFSTIVVEEGHEGLTHFLMNEVIKLQQQMKAKDLQRCELLARLRQLEDEKKQMTLTRVELLTFQERYYKMKEERDSYNDELVKVKDDNYNLAMRYAQLSEEKNMAVMRSRDLQLEIDQLKHRLNKMEEECKLERNQSLKLKNDIENRPKKEQVLELERENEMLKTKNQELQSIIQAGKRSLPDSDKAILDILEHDRKEALEDRQELVNRIYNLQEEARQAEELRDKYLEEKEDLELKCSTLGKDCEMYKHRMNTVMLQLEEVERERDQAFHSRDEAQTQYSQCLIEKDKYRKQIRELEEKNDEMRIEMVRREACIVNLESKLRRLSKDSNNLDQSLPRNLPVTIISQDFGDASPRTNGQEADDSSTSEESPEDSKYFLPYHPPQRRMNLKGIQLQRAKSPISLKRTSDFQAKGHEEEGTDASPSSCGSLPITNSFTKMQPPRSRSSIMSITAEPPGNDSIVRRYKEDAPHRSTVEEDNDSGGFDALDLDDDSHERYSFGPSSIHSSSSSHQSEGLDAYDLEQVNLMFRKFSLERPFRPSVTSVGHVRGPGPSVQHTTLNGDSLTSQLTLLGGNARGSFVHSVKPGSLAEKAGLREGHQLLLLEGCIRGERQSVPLDTCTKEEAHWTIQRCSGPVTLHYKVNHEGYRKLVKDMEDGLITSGDSFYIRLNLNISSQLDACTMSLKCDDVVHVRDTMYQDRHEWLCARVDPFTDHDLDMGTIPSYSRAQQLLLVKLQRLMHRGSREEVDGTHHTLRALRNTLQPEEALSTSDPRVSPRLSRASFLFGQLLQFVSRSENKYKRMNSNERVRIISGSPLGSLARSSLDATKLLTEKQEELDPESELGKNLSLIPYSLVRAFYCERRRPVLFTPTVLAKTLVQRLLNSGGAMEFTICKSDIVTRDEFLRRQKTETIIYSREKNPNAFECIAPANIEAVAAKNKHCLLEAGIGCTRDLIKSNIYPIVLFIRVCEKNIKRFRKLLPRPETEEEFLRVCRLKEKELEALPCLYATVEPDMWGSVEELLRVVKDKIGEEQRKTIWVDEDQL"

# No constants are given. Whether binding was seen depends on the method and setting. Binding seen in cells or lysates may run through a third protein. A yes stands for co-enrichment or nearness to the bait. Other partners may have been found.
